Values from PubChem BioAssay AID493246 (Drosophila RNAi Screening Center, 2011)
Screen: 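Identify essential fly genes by loss of cell viability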 (primary screen). Cell system: Drosophila Kc and S2R+ cells. Reagent: long dsRNA against Drosophila genes. Measured: 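Cell number per well after knock-down, printed as raw plate values; calls were based on per-plate z-scores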. Reading the numbers: Kc cell number and S2R+ cell number: higher = more cells remaining. Hit rule: 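Counted as a hit if cell number falls by a z-score of at least 3 within its plate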.
In all, the deposit lists about 21,000 reagents; shown is an unselected part of those that have a named target and a result. In the full data, 429 (2%) got an active call. 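Values are raw and not normalised between plates; calls rest on per-plate z-scores that were not deposited.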 A number with no mark means an inactive call. The numbers tell different reagents against one gene apart. A plus sign joins genes that one reagent is predicted to hit. Not given: the amount of reagent, the time to read-out.

predicted target | dsRNA no. | Kc cell number, rep 1 | Kc cell number, rep 2 | S2R+ cell number, rep 1 | S2R+ cell number, rep 2
CG18789 (GeneID 317813) | 1 | 1.73e6 | 1.88e6 | 1.22e6 | 1.31e6
CG11019 (retired record) (GeneID 50472) | 1 | 1.55e6 | 1.67e6 | 1.18e6 | 3.01e5
TwdlR (GeneID 318586) | 1 | 1.65e6 | 1.75e6 | 9.90e5 | 1.19e6
Bet3 (GeneID 39090) | 1 | 1.56e6 | 1.49e6 | 1.26e6 | 1.50e6
Tim17a1 (GeneID 41500) | 1 | 1.43e6 | 1.47e6 | 1.23e6 | 1.31e6
CG11436 (GeneID 31386) | 1 | 5.71e5 | – | 8.04e5 | –
Atx-1 (GeneID 31624) | 1 | 1.46e6 | 1.43e6 | 9.84e5 | 1.14e6
CG30419 (GeneID 37879) | 1 | 1.41e6 | 1.55e6 | 1.03e6 | 1.18e6
CG30419 (GeneID 37879) | 2 | 1.30e6 | 1.46e6 | 1.03e6 | 1.11e6
CG13362 (GeneID 31018) | 1 | 1.56e6 | 1.59e6 | 9.96e5 | 1.08e6
Polr2L (GeneID 42942) | 1 | 1.80e6 | 1.83e6 | 1.03e6 | 1.09e6
Cyp4d14 (GeneID 45706) | 1 | 1.52e6 | 1.51e6 | 1.11e6 | 1.20e6
CG14810 (GeneID 31131) | 1 | 1.37e6 | 1.65e6 | 9.55e5 | 1.06e6
CG14810 (GeneID 31131) | 2 | 1.48e6 | 1.44e6 | 1.02e6 | 1.08e6
CG10939 (GeneID 44155) | 1 | 1.20e6 | 1.34e6 | 8.69e5 | 8.63e5
fs(1)K10 (GeneID 47781) | 1 | 4.76e5 | – | 7.49e5 | –
CG14357 (GeneID 41716) | 1 | 1.18e6 | 1.32e6 | 1.11e6 | 1.21e6
CG15212 (GeneID 50315) | 1 | 1.26e6 | 1.37e6 | 1.11e6 | 1.17e6
CG9269 (GeneID 41663) | 1 | 1.32e6 | 1.42e6 | 1.25e6 | 1.33e6

Next part, starting with the last 5 of the part before.
predicted target | dsRNA no. | Kc cell number, rep 1 | Kc cell number, rep 2 | S2R+ cell number, rep 1 | S2R+ cell number, rep 2
CG10939 (GeneID 44155) | 1 | 1.20e6 | 1.34e6 | 8.69e5 | 8.63e5
fs(1)K10 (GeneID 47781) | 1 | 4.76e5 | – | 7.49e5 | –
CG14357 (GeneID 41716) | 1 | 1.18e6 | 1.32e6 | 1.11e6 | 1.21e6
CG15212 (GeneID 50315) | 1 | 1.26e6 | 1.37e6 | 1.11e6 | 1.17e6
CG9269 (GeneID 41663) | 1 | 1.32e6 | 1.42e6 | 1.25e6 | 1.33e6
CG6574 (GeneID 41308) | 1 | 1.44e6 | 1.54e6 | 1.31e6 | 1.46e6
CG7992 (GeneID 32917) | 1 | 1.45e6 | 1.49e6 | 1.08e6 | 1.14e6
mor (GeneID 41942) | 1 | 1.24e6 | 1.32e6 | 1.02e6 | 1.20e6
Arf4 (GeneID 43823) | 1 | 1.62e6 | 1.57e6 | 9.44e5 | 1.07e6
DCTN6-p27 (GeneID 35195) | 1 | 1.37e6 | 1.48e6 | 9.88e5 | 1.09e6
CG42372 + CG30100 | 1 | 6.21e5 | – | 8.15e5 | –
Rsod (GeneID 43586) | 1 | 1.45e6 | 1.46e6 | 9.92e5 | 1.07e6
beat-VI (GeneID 43377) | 1 | 1.45e6 | 1.49e6 | 9.91e5 | 1.11e6
beat-VI (GeneID 43377) | 2 | 1.41e6 | 1.47e6 | 9.71e5 | 1.08e6
Dscam4 (GeneID 2769008) | 1 | 1.65e6 | 1.82e6 | 1.20e6 | 1.38e6
Dscam4 (GeneID 2769008) | 2 | 1.53e6 | 1.71e6 | 1.09e6 | 1.26e6
Dscam4 (GeneID 2769008) | 3 | 1.62e6 | 1.47e6 | 9.87e5 | 1.11e6
Dscam4 (GeneID 2769008) | 4 | 1.41e6 | 1.33e6 | 8.71e5 | 1.02e6
Dscam4 (GeneID 2769008) | 5 | 1.52e6 | 1.38e6 | 1.10e6 | 1.22e6
CG4734 (GeneID 36477) | 1 | 1.65e6 | 1.72e6 | 1.36e6 | 1.42e6
GIIIspla2 (GeneID 31747) | 1 | 5.56e5 | – | 8.08e5 | –
CG8607 (GeneID 38805) | 1 | 1.47e6 | 1.35e6 | 1.13e6 | 1.22e6
CG42579 (GeneID 8674025) | 1 | 1.40e6 | 1.62e6 | 1.13e6 | 1.16e6
CG33775 (GeneID 3772054) | 1 | 1.57e6 | 1.60e6 | 1.05e6 | 1.22e6
sro (GeneID 43512) | 1 | 1.36e6 | 1.30e6 | 9.47e5 | 1.08e6
Spf30 (GeneID 7354399) | 1 | 1.51e6 | 1.58e6 | 1.08e6 | 1.24e6
HINT1 (GeneID 33471) | 1 | 1.74e6 | 1.74e6 | 1.13e6 | 1.29e6
mex1 (GeneID 39677) | 1 | 1.65e6 | 1.69e6 | 1.21e6 | 1.31e6
CG13151 (GeneID 36374) | 1 | 1.47e6 | 1.55e6 | 1.22e6 | 1.38e6
Obp18a (GeneID 32897) | 1 | 1.43e6 | 1.48e6 | 1.04e6 | 1.12e6
CG32023 (GeneID 317827) | 1 | 1.44e6 | 1.54e6 | 1.18e6 | 1.33e6
Nt5a (GeneID 38148) | 1 | 1.31e6 | 1.36e6 | 1.10e6 | 1.14e6
CG45105 (GeneID 41932) | 1 | 1.28e6 | 1.23e6 | 8.84e5 | 1.02e6
CG45105 (GeneID 41932) | 2 | 1.22e6 | 1.21e6 | 8.47e5 | 9.50e5
Lcp9 (GeneID 37963) | 1 | 1.74e6 | 1.82e6 | 1.17e6 | 1.36e6
Rsph1 (GeneID 34712) | 1 | 1.74e6 | 1.81e6 | 1.37e6 | 1.54e6
CG1847 (GeneID 32144) | 1 | 5.72e5 | – | 8.47e5 | –
Ubc87F (GeneID 41682) | 1 | 1.33e6 | 1.46e6 | 1.17e6 | 1.31e6
Prosalpha7 (GeneID 36018) | 1 | 8.49e5 | 9.77e5 | 6.14e5 | 7.02e5
Cdc2rk (GeneID 36051) | 1 | 1.48e6 | 1.57e6 | 1.24e6 | 1.32e6
amx (GeneID 43869) | 1 | 1.56e6 | 1.66e6 | 9.50e5 | 1.08e6
CG12128 (GeneID 36042) | 1 | 1.33e6 | 1.47e6 | 1.09e6 | 1.16e6
Rsph4a (GeneID 37831) | 1 | 1.65e6 | 1.68e6 | 1.15e6 | 1.28e6
Bap55 (GeneID 36956) | 1 | 1.24e6 | 1.26e6 | 9.57e5 | 1.06e6
CG17187 (GeneID 41351) | 1 | 1.51e6 | 1.54e6 | 1.30e6 | 1.37e6
